These are yes or no findings as the source states them, for the method shown. In cells and extracts the contact can be indirect.
Target: YFP-hScrib (human) (UniProt Q14160)
Test: FRET or BRET

Chains of the proteins cited; added tags and fusions are not shown.
UniProt Q14160: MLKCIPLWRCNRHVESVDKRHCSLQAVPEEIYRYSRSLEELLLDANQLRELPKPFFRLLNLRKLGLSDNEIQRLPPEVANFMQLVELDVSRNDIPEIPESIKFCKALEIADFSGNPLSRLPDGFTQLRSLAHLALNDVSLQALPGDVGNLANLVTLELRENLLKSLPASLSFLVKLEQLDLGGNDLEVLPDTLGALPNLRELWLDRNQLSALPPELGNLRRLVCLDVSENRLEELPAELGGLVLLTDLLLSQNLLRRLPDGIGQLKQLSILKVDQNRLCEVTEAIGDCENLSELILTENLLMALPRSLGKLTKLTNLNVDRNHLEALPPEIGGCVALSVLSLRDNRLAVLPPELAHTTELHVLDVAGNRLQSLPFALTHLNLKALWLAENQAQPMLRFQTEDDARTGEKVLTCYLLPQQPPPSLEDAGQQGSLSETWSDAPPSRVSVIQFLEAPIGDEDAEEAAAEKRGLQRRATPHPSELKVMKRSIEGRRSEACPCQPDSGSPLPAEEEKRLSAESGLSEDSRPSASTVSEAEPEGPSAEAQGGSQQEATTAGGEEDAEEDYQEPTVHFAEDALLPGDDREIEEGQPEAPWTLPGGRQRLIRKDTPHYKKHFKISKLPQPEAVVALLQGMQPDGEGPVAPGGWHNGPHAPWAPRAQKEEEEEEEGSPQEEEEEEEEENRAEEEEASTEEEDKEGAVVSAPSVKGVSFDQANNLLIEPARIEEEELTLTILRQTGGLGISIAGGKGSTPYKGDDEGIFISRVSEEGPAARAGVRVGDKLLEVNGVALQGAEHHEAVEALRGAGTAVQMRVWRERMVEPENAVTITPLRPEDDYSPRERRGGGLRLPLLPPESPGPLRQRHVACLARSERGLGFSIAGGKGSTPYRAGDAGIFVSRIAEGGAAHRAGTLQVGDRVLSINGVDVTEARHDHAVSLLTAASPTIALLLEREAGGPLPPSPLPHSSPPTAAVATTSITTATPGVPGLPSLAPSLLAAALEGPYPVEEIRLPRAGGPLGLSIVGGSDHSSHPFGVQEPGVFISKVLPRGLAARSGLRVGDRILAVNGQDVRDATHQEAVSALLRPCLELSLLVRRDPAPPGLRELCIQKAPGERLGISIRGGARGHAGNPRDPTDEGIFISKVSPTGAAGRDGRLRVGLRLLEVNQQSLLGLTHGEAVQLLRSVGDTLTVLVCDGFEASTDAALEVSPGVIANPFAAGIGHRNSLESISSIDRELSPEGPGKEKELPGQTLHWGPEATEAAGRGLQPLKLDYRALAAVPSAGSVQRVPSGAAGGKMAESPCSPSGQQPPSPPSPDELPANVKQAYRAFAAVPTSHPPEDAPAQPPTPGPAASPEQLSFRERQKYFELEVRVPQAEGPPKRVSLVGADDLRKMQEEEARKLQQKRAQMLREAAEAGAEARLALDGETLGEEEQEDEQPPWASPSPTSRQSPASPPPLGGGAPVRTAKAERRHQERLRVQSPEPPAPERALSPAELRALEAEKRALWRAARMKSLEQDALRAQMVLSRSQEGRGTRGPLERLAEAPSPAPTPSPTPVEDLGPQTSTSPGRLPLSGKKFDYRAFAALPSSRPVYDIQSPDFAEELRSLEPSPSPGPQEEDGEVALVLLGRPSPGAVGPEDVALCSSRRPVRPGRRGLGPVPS
UniProt P16790: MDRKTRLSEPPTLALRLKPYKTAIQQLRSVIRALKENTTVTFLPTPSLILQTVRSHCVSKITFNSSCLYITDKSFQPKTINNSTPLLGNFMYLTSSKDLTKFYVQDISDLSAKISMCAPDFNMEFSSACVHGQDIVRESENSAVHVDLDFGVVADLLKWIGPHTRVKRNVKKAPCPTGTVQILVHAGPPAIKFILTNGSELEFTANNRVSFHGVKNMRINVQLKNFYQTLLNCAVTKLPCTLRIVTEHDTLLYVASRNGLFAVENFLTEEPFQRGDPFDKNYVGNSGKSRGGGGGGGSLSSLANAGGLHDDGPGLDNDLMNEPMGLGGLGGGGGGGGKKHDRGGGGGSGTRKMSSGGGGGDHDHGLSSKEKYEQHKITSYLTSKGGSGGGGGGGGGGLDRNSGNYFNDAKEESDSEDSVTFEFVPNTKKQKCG

**Q.** Which binding does the source give for “RLuc-UL44 (UL44 of human cytomegalovirus) (from UniProt P16790 1-433)” here?
**A.** The binding was “no binding”.

— publication PMC8393709
